# Measured values published in PubChem BioAssay AID588497 (NMMLSC, 2011).
# Out of some 360,000 compounds screened, about 780 (0.22%) were called active. This list was built around the results that the source calls inconclusive (neither active nor inactive); the mix of calls is not that of the screen. Cut-off read from the data, not from the text of the source: active = inhibition above about 35% (passing the limit was not always enough); inconclusive = no clear call, values can overlap the other calls.
# Tested on: Botulinum neurotoxin type F light chain protease (Clostridium botulinum)
# Assay: BoNT/F light chain protease inhibitors, primary screen, biochemical, flow cytometry, MLPCN library (AID 588497); note: plate controls were buffer without enzyme for full effect and enzyme alone for no effect
# Conditions: Multiplex microsphere protease cleavage assay, at 10 µM, hits give high values
row,Compound,inhibition
1,Clc1ccc(-c2c(C3=NCCCN3)nnn2-c2ccc(Cl)cc2)cc1,inconclusive: 2.4%
2,CCOc1ccc(N2C(=O)/C(=C/c3cc(OC)c(OC)c(OC)c3)N(CC(=O)OC)C2=S)cc1,inconclusive: 9.6%
3,COc1cccc(-n2c(O)c(C=NCc3ccccn3)c3ccccc3c2=O)c1,inconclusive: 42.2%
4,CC(C)(C)OC(=O)N[C@@H](Cc1ccccc1)C(=O)N1CCC(C(=O)N[C@@H](Cc2c[nH]c3ccccc23)C(=O)O)CC1,inactive: 5.1%
5,COC(=O)c1[nH]c2ccc(Cl)cc2c1NC(=O)Oc1ccccc1,inconclusive: 6.6%
6,O=C(CBr)N1CCc2ccccc2C(c2ccccc2)C1 (configuration not stated),inconclusive: -33.3%
7,OCc1cn(-c2ccccc2)nc1-c1ccc(Br)cc1,inconclusive: -34.3%
8,Cc1cc(C)nc(N2N=C(C(F)(F)F)CC2=O)n1,inconclusive: -30.1%
9,Cc1ccc(C(=O)Nc2ccc(S(=O)(=O)N3CCc4ccccc4C3)cc2)o1,active: 36.5%
10,CCNC(=S)N(CCN(C)C)Cc1cc2cc3c(cc2[nH]c1=O)OCO3,inconclusive: 11%
11,O=C(Nc1nnc(COc2ccc(Br)cc2)s1)c1ccco1,inconclusive: -38.6%
12,C=CCn1c(-c2c[nH]c3ccccc23)n[nH]c1=S,inconclusive: 11.4%
13,O=C(C1=C(O)C(=O)N(c2nccs2)C1c1ccccc1)c1cc2ccccc2o1 (configuration not stated),inconclusive: 52.2%
14,CN(C(=O)c1cccc(NC(=O)Cc2ccc(NC(=O)C3CCN(C(=O)C4CCCCC4)CC3)cc2)c1)C1CC1,inactive: -3.1%
15,Cc1cc(NC(=O)c2cc3cccc([N+](=O)[O-])c3[nH]2)ccc1F,inconclusive: -17%
16,CC(=O)N1N=C(c2ccccc2)CC1c1cccc([N+](=O)[O-])c1 (configuration not stated),active: 41.9%
17,Fc1ccc(/C=N/Nc2ncnc3nc[nH]c23)cc1F,inactive: -9.7%
18,CC(C)c1nc2c(c(=O)n(C)c(=O)n2C)n1C,inconclusive: -32.6%
19,Cc1ccc(C)c(OCCn2ccnc2)c1,inconclusive: -5.8%
20,O=S(=O)(c1ccc(N2CCCC2)cc1)C(F)(F)F,inactive: 1.4%
21,O=C(COc1ccc(F)cc1)N/N=C/c1cccc2cccnc12,inactive: 10.2%
22,O=S(=O)(c1ccc(-c2ccon2)s1)N1CCCC1,inconclusive: 2.6%
23,O=C(Cc1ccccc1)Oc1ccc([N+](=O)[O-])cc1,inconclusive: 27.8%

row,Compound,inhibition
1,Cc1ccc(N(C(=O)c2csnn2)C(C(=O)NC2CCCCC2)c2ccncc2)c(C)c1 (configuration not stated),inactive: 23.6%
2,Cc1cc(=O)oc2cc(OCC(=O)c3ccccc3)ccc12,inconclusive: -53%
3,COc1cc(Cl)cc2c1Sc1ccccc1/C2=C/CCN(C)C,inconclusive: -273%
4,CC(C)c1ccc(CN2CCC2(C)C(=O)Nc2cccc(Oc3ccccc3)c2)cc1 (configuration not stated),inactive: -6.7%
5,CCc1nn2c(=O)cc(COC(=O)c3cc(Cl)c(OC)c(OC)c3)nc2s1,inactive: -9.8%
6,COCCNc1c2c(nc3c(-c4ccccc4)c(C)nn13)CCC2,inconclusive: -6.7%
7,COc1ccc(/C=C/c2nnc(NC(=O)C(C)C)s2)cc1,inconclusive: -234%
8,CCOC(=O)Cc1cc(=O)n2[nH]c(-c3ccccc3)cc2n1,inactive: -1.9%
9,O=C(O)CC(C(=O)O)n1nc(-c2ccccc2)cc1-c1ccccc1 (configuration not stated),inconclusive: 16%
10,Cc1cc(/C=C(/C#N)C(=O)Nc2ccccc2)c(C)n1-c1cccnc1,inactive: -4.9%
11,CC(=O)c1ccc(OCC(O)CN2CCN(c3ccc(F)cc3)CC2)cc1 (configuration not stated),inconclusive: -37.9%
12,O=C(Nc1ccc(C(F)(F)F)cc1)c1ccccc1-n1cnnn1,inactive: -7.5%
13,Cc1nc(NC(=O)C2CC2)sc1C(=O)Nc1ccccc1Cl,inconclusive: -13.7%
14,C=CC(=O)NCc1ccc(-c2csnn2)cc1,inconclusive: -6.6%
15,COc1ccc(Cl)cc1C(=O)NCCCN1CCOCC1,inconclusive: 0.5%
16,Cc1ccc(S(C)(=O)=NS(=O)(=O)c2cccc3nsnc23)cc1 (configuration not stated),inconclusive: -50.5%
17,COc1ccc(/C=C/C(=O)NC(=S)NNC(=O)c2cnccn2)cc1,inconclusive: 17.9%
18,COc1ccc(CC(=O)N(Cc2ccccc2)C(C)C)cc1,inconclusive: -1.1%
19,CC(=O)Nc1cccc(C(=O)N/N=C/c2cccnc2)c1,inactive: -0.2%
20,CCCCNC(=O)Nc1nnc(-c2ccc(OCC)cc2)o1,inactive: -3.8%
21,CCOc1ccc(NC(=O)COC(=O)CCC(=O)c2cccs2)cc1,inactive: 0.4%
22,Cc1cc(C)cc(NC(=O)N2CCCN(Cc3c(F)cccc3Cl)CC2)c1,inconclusive: -13.3%
23,Cc1ccc(C(=O)Nn2cnnc2)c(Cl)c1,inconclusive: -66.5%

row,Compound,inhibition
1,Cc1ccc(S(=O)(=O)/N=C(\N)Nc2nc(C)c3ccc(C)cc3n2)cc1,inactive: -0.1%
2,CC1(C)CC(=O)C2=C(C1)Nc1ccccc1NC2c1ccccn1 (configuration not stated),inactive: -6%
3,CC(C)[C@H](NC(=O)c1c(F)cccc1F)C(=O)Nc1cccc(Br)c1,inactive: -8%
4,CCn1cc(CN2CCN(C)C(CCO)C2)c2ccccc21 (configuration not stated),inconclusive: -0.8%
5,COc1ccc(C(=O)NC(=S)NNC(=O)c2ccc(C)cc2)cc1,inconclusive: 71.6%
6,O=S1(=O)N=C2CCCCCN2C(c2ccncc2)N1 (configuration not stated),inconclusive: -8.5%
7,CCn1c(SCc2ccccc2)nc2cc(OC)c(OC)cc2c1=O,inconclusive: 3.3%
8,CC(=O)Nc1ccc(C(=O)/C=C/c2ccc[nH]2)cc1,inconclusive: 114%
9,c1ccc2c3c(cc(N4CCOCC4)c2c1)OC1(N2CCOCC2)CCCCC1O3 (configuration not stated),active: 36.4%
10,O=C(COc1ccc(F)cc1)Nc1cc(Cl)ccc1-n1cncn1,inconclusive: -3%
11,COCCN(C(=O)CN1CCCc2ccccc21)c1c(N)n(Cc2ccccc2)c(=O)[nH]c1=O,inconclusive: -22.4%
12,COc1ccc(NC(=O)CN2C(=O)C(C)Oc3ccc(C)cc32)cc1 (configuration not stated),inconclusive: 26.2%
13,COC(=O)c1ccc(NC2=CC(=O)CC(C)(C)C2)cc1,inconclusive: -21.8%
14,CC(C)(C)C(=O)Nc1nc(-c2ccc3c(c2)OCO3)cs1,inactive: -10%
15,O=C(NNC(=O)C1[C@H]2CCCC[C@@H]12)c1ccc(=O)oc1 (some centres not stated),inconclusive: 6.3%
16,Nc1ccc(S(=O)(=O)N2CCc3ccccc32)cc1,inconclusive: -31.4%
17,O=C(CCN1CCOCC1)c1ccc(Cl)cc1,active: 41.6%
18,Cc1ccc(OCC(=O)N(Cc2ccc(N(C)C)cc2)C2CCS(=O)(=O)C2)cc1C (configuration not stated),inconclusive: -55.6%
19,Cn1cc(CNC(=O)C23CC4CC(CC(C4)C2)C3)cn1,active: 35.5%
20,CCc1nc2ccc(C(=O)N(CC)CCN(C)C)cn2c1N(C)C(=O)c1cccc(OC)c1,inactive: -5%
21,Cc1cc(C(=O)COC(=O)CN(C)S(=O)(=O)c2ccc(Cl)cc2)c(C)n1CC1CCCO1 (configuration not stated),inconclusive: -22.7%
22,Cc1cc(C)cc(N2C(=O)NC(=O)/C(=C\c3cc(C)n(C)c3C)C2=O)c1,inactive: 0.6%
23,COc1ccc2c(=O)cc(C(F)(F)C(F)(F)F)oc2c1,inactive: -1.7%

# Taken from above:
# `CCn1c(SCc2ccccc2)nc2cc(OC)c(OC)cc2c1=O` | inhibition: inconclusive: 3.3%
# `O=S1(=O)N=C2CCCCCN2C(c2ccncc2)N1` (configuration not stated) | inhibition: inconclusive: -8.5%
# `O=C(COc1ccc(F)cc1)Nc1cc(Cl)ccc1-n1cncn1` | inhibition: inconclusive: -3%
# `Nc1ccc(S(=O)(=O)N2CCc3ccccc32)cc1` | inhibition: inconclusive: -31.4%
# `COc1ccc(NC(=O)CN2C(=O)C(C)Oc3ccc(C)cc32)cc1` (configuration not stated) | inhibition: inconclusive: 26.2%
# `O=C(NNC(=O)C1[C@H]2CCCC[C@@H]12)c1ccc(=O)oc1` (some centres not stated) | inhibition: inconclusive: 6.3%

# Continued:

row,Compound,inhibition
1,O=C(CN1C(=O)CSc2ccccc21)N/N=C/c1ccco1,inconclusive: 3%
2,CCOC(=O)C1(Cc2ccccc2)CCN(Cc2ccc3c(c2)OCCO3)CC1,inactive: 0.1%
3,O=C1c2ccccc2C(=O)N1CCSc1ncn[nH]1,inconclusive: -19.3%
4,Cc1c(O[C@@H]2O[C@H](CO)[C@@H](O)[C@H](O)[C@H]2O)ccc2c1oc(=O)c1ccccc12,active: 35.1%
5,COc1ccc2c(c1)c(C(=O)O)c(C)n2CCc1ccc(OC)c(OC)c1,inconclusive: 39.5%
6,CCc1ccc(-c2cn(-c3nc(C)cc(C)n3)c(=N)o2)cc1,inactive: -3.3%
7,CCNCCC(=O)N1c2ccccc2Sc2ccc(C(F)(F)F)cc21,inconclusive: -27.2%
8,CCOc1ccccc1NC(=O)c1ccc(CN2CCc3ccccc3C2)cc1,inconclusive: 20.9%
9,CC(=O)Nc1ccc(NS(=O)(=O)c2c(Cl)cccc2Cl)cc1,inactive: 6.8%
10,O=C(OC1CCCCC1=O)c1cc(=O)c2ccccc2o1 (configuration not stated),inconclusive: -46.3%
11,O=C(Nc1nnc(COc2ccccc2)s1)C1CCN(S(=O)(=O)c2ccc(Cl)cc2)CC1,inactive: -0.4%
12,COCC(C)n1c(SCC(=O)NCCC2=CCCCC2)nc2ccccc2c1=O (configuration not stated),inactive: -14%
13,Cn1c(SCC(=O)c2ccccc2)nnc1-c1ccccn1,inconclusive: 3.7%
14,COc1ccc(CNc2ccc(S(=O)(=O)N3CCN(C)CC3)cn2)cc1OC,inconclusive: -10.8%
15,O=C(Cn1[nH]c(=O)c2ccccc2c1=O)OCC(=O)c1ccccc1Cl,inconclusive: -1%
16,CCCC(=O)Nc1nnc(Cc2ccccc2)s1,inactive: -0.9%
17,COc1ccccc1C(=O)NC(=O)COC(=O)CNC(=O)c1ccccc1,inconclusive: 4.9%
18,CCc1cc2ccc(C)cc2nc1SCC(=O)NC1CCCC1,inactive: -2.4%
19,O=C(Nc1ccccc1)N1CCCN(c2nccc(C(F)(F)F)n2)CC1,inconclusive: 3.6%
20,Cn1nnc(NC(=S)NC(=O)c2ccccc2)n1,inconclusive: 28.1%
21,CN(C)S(=O)(=O)c1cc(C(=O)NCCCn2ccc3ccccc32)ccc1Cl,inactive: -27.3%
22,COc1ccc(OCC(=O)NNC(=O)c2c(-c3ccccc3Cl)noc2C)cc1,inconclusive: 148%
23,Cc1onc(-c2ccc(Cl)cc2Cl)c1C(=O)/C=C/N(C)C,inconclusive: -47.7%
